Laboratory results from the supplement of paper PMC11438910.
This is one part of the list. Most of these values are background signal.

What was measured:
Assay in all cases: fluorescence intensity of antibody binding to polysaccharide-coupled beads; higher = stronger binding
[1] = target: pneumococcal polysaccharide Pn23F
[2] = target: pneumococcal polysaccharide Pn24A
[3] = target: pneumococcal polysaccharide Pn24B
[4] = target: pneumococcal polysaccharide Pn24F
[5] = target: pneumococcal polysaccharide Pn25A
[6] = target: pneumococcal polysaccharide Pn25F
[7] = target: pneumococcal polysaccharide Pn27
[8] = target: pneumococcal polysaccharide Pn28A
[9] = target: pneumococcal polysaccharide Pn28F
[10] = target: pneumococcal polysaccharide Pn29
[11] = target: pneumococcal polysaccharide Pn3
[12] = target: pneumococcal polysaccharide Pn31
[13] = target: pneumococcal polysaccharide Pn32A
[14] = target: pneumococcal polysaccharide Pn32F
[15] = target: pneumococcal polysaccharide Pn33A
[16] = target: pneumococcal polysaccharide Pn33B
[17] = target: pneumococcal polysaccharide Pn33C
[18] = target: pneumococcal polysaccharide Pn33D
[19] = target: pneumococcal polysaccharide Pn33F
[20] = target: pneumococcal polysaccharide Pn34
[21] = target: pneumococcal polysaccharide Pn35A
[22] = target: pneumococcal polysaccharide Pn35B
[23] = target: pneumococcal polysaccharide Pn35C
[24] = antibody concentration 2.8593 ng/mL
[25] = antibody concentration 15.2894 ng/mL
[26] = antibody concentration 81.7561 ng/mL
[27] = antibody concentration 437.17 ng/mL
[28] = antibody concentration 2337.65 ng/mL
[29] = antibody concentration 12500 ng/mL
[30] = antibody concentration 0.1 ng/mL
[31] = antibody concentration 0.534724 ng/mL

B1: 4-80.1 (protein)
chain 1: QVQLQESGPGLVKPSETLSLTCAVSGIPISTYWWSWIRQTPEKGLEWIGEIDGNGGGTNYNPSLQSRVTFSKDASKNQFSLRLNSVTAADTAVFYCARLWGNAYWGQGVLVTVSS
chain 2: DVVMTQSPLSLPINPGQPASISCRSSQSLVYSDGKTYLTWYQQKPGQPPRRLIYQVSKRDSGVPDRFSGSGAGTDFTLKISRVESEDVGIYYCLQGTHLPYTFGQGTKVEIK
fluorescence intensity [1, 24]: 17.8 MFI | fluorescence intensity [1, 25]: 19.2 MFI | fluorescence intensity [1, 26]: 17 MFI | fluorescence intensity [1, 27]: 19.2 MFI | fluorescence intensity [1, 28]: 25.8 MFI | fluorescence intensity [1, 29]: 42.5 MFI | fluorescence intensity [2, 30]: 16 MFI | fluorescence intensity [2, 31]: 15.8 MFI | fluorescence intensity [2, 24]: 15.8 MFI | fluorescence intensity [2, 25]: 25 MFI | fluorescence intensity [2, 26]: 103 MFI | fluorescence intensity [2, 27]: 791 MFI | fluorescence intensity [2, 28]: 1660 MFI | fluorescence intensity [2, 29]: 2140 MFI | fluorescence intensity [3, 30]: 19 MFI | fluorescence intensity [3, 31]: 19 MFI | fluorescence intensity [3, 24]: 16.5 MFI | fluorescence intensity [3, 25]: 18.5 MFI | fluorescence intensity [3, 26]: 22 MFI | fluorescence intensity [3, 27]: 45 MFI | fluorescence intensity [3, 28]: 85.2 MFI | fluorescence intensity [3, 29]: 126 MFI | fluorescence intensity [4, 30]: 17 MFI | fluorescence intensity [4, 31]: 18 MFI | fluorescence intensity [4, 24]: 19.8 MFI | fluorescence intensity [4, 25]: 21.2 MFI | fluorescence intensity [4, 26]: 28 MFI | fluorescence intensity [4, 27]: 123 MFI | fluorescence intensity [4, 28]: 296 MFI | fluorescence intensity [4, 29]: 295 MFI | fluorescence intensity [5, 30]: 23.5 MFI | fluorescence intensity [5, 31]: 25 MFI | fluorescence intensity [5, 24]: 23.8 MFI | fluorescence intensity [5, 25]: 25 MFI | fluorescence intensity [5, 26]: 30 MFI | fluorescence intensity [5, 27]: 117 MFI | fluorescence intensity [5, 28]: 464 MFI | fluorescence intensity [5, 29]: 889 MFI | fluorescence intensity [6, 30]: 29.8 MFI | fluorescence intensity [6, 31]: 33 MFI | fluorescence intensity [6, 24]: 29.5 MFI | fluorescence intensity [6, 25]: 30 MFI | fluorescence intensity [6, 26]: 34.5 MFI | fluorescence intensity [6, 27]: 66.5 MFI | fluorescence intensity [6, 28]: 153 MFI | fluorescence intensity [6, 29]: 274 MFI | fluorescence intensity [7, 30]: 18.5 MFI | fluorescence intensity [7, 31]: 16.8 MFI | fluorescence intensity [7, 24]: 18.5 MFI | fluorescence intensity [7, 25]: 22.2 MFI | fluorescence intensity [7, 26]: 61.8 MFI | fluorescence intensity [7, 27]: 269 MFI | fluorescence intensity [7, 28]: 634 MFI | fluorescence intensity [7, 29]: 984 MFI | fluorescence intensity [8, 30]: 26.5 MFI | fluorescence intensity [8, 31]: 28 MFI | fluorescence intensity [8, 24]: 26.5 MFI | fluorescence intensity [8, 25]: 28 MFI | fluorescence intensity [8, 26]: 28.5 MFI | fluorescence intensity [8, 27]: 51 MFI | fluorescence intensity [8, 28]: 178 MFI | fluorescence intensity [8, 29]: 451 MFI | fluorescence intensity [9, 30]: 29.8 MFI | fluorescence intensity [9, 31]: 29 MFI | fluorescence intensity [9, 24]: 28.5 MFI | fluorescence intensity [9, 25]: 31.5 MFI | fluorescence intensity [9, 26]: 47.5 MFI | fluorescence intensity [9, 27]: 236 MFI | fluorescence intensity [9, 28]: 651 MFI | fluorescence intensity [9, 29]: 1000 MFI | fluorescence intensity [10, 30]: 17 MFI | fluorescence intensity [10, 31]: 16 MFI | fluorescence intensity [10, 24]: 17.8 MFI | fluorescence intensity [10, 25]: 19.8 MFI | fluorescence intensity [10, 26]: 41.2 MFI | fluorescence intensity [10, 27]: 233 MFI | fluorescence intensity [10, 28]: 573 MFI | fluorescence intensity [10, 29]: 870 MFI | fluorescence intensity [11, 30]: 13.8 MFI | fluorescence intensity [11, 31]: 12.8 MFI | fluorescence intensity [11, 24]: 13.5 MFI | fluorescence intensity [11, 25]: 13 MFI | fluorescence intensity [11, 26]: 14 MFI | fluorescence intensity [11, 27]: 15 MFI | fluorescence intensity [11, 28]: 18.5 MFI | fluorescence intensity [11, 29]: 32.5 MFI | fluorescence intensity [12, 30]: 14 MFI | fluorescence intensity [12, 31]: 14 MFI | fluorescence intensity [12, 24]: 16.5 MFI | fluorescence intensity [12, 25]: 34.5 MFI | fluorescence intensity [12, 26]: 177 MFI | fluorescence intensity [12, 27]: 664 MFI | fluorescence intensity [12, 28]: 1060 MFI | fluorescence intensity [12, 29]: 1230 MFI | fluorescence intensity [13, 30]: 17.8 MFI | fluorescence intensity [13, 31]: 18.2 MFI | fluorescence intensity [13, 24]: 17.5 MFI | fluorescence intensity [13, 25]: 18.5 MFI | fluorescence intensity [13, 26]: 17.8 MFI | fluorescence intensity [13, 27]: 20 MFI | fluorescence intensity [13, 28]: 30 MFI | fluorescence intensity [13, 29]: 57 MFI | fluorescence intensity [14, 30]: 30 MFI | fluorescence intensity [14, 31]: 28 MFI | fluorescence intensity [14, 24]: 29 MFI | fluorescence intensity [14, 25]: 30 MFI | fluorescence intensity [14, 26]: 31.5 MFI | fluorescence intensity [14, 27]: 36 MFI | fluorescence intensity [14, 28]: 53.5 MFI | fluorescence intensity [14, 29]: 75 MFI | fluorescence intensity [15, 30]: 18.5 MFI | fluorescence intensity [15, 31]: 17.5 MFI | fluorescence intensity [15, 24]: 17.8 MFI | fluorescence intensity [15, 25]: 20 MFI | fluorescence intensity [15, 26]: 33 MFI | fluorescence intensity [15, 27]: 106 MFI | fluorescence intensity [15, 28]: 233 MFI | fluorescence intensity [15, 29]: 444 MFI | fluorescence intensity [16, 30]: 18 MFI | fluorescence intensity [16, 31]: 18.5 MFI | fluorescence intensity [16, 24]: 18.5 MFI | fluorescence intensity [16, 25]: 18 MFI | fluorescence intensity [16, 26]: 18.2 MFI | fluorescence intensity [16, 27]: 20 MFI | fluorescence intensity [16, 28]: 25.5 MFI | fluorescence intensity [16, 29]: 36.5 MFI | fluorescence intensity [17, 30]: 20.5 MFI | fluorescence intensity [17, 31]: 19.5 MFI | fluorescence intensity [17, 24]: 20 MFI | fluorescence intensity [17, 25]: 39 MFI | fluorescence intensity [17, 26]: 178 MFI | fluorescence intensity [17, 27]: 1170 MFI | fluorescence intensity [17, 28]: 2180 MFI | fluorescence intensity [17, 29]: 2610 MFI | fluorescence intensity [18, 30]: 16.5 MFI | fluorescence intensity [18, 31]: 16.5 MFI | fluorescence intensity [18, 24]: 16 MFI | fluorescence intensity [18, 25]: 16 MFI | fluorescence intensity [18, 26]: 21.2 MFI | fluorescence intensity [18, 27]: 106 MFI | fluorescence intensity [18, 28]: 339 MFI | fluorescence intensity [18, 29]: 596 MFI | fluorescence intensity [19, 30]: 12.8 MFI | fluorescence intensity [19, 31]: 13.5 MFI | fluorescence intensity [19, 24]: 14.5 MFI | fluorescence intensity [19, 25]: 15 MFI | fluorescence intensity [19, 26]: 29.5 MFI | fluorescence intensity [19, 27]: 179 MFI | fluorescence intensity [19, 28]: 540 MFI | fluorescence intensity [19, 29]: 886 MFI | fluorescence intensity [20, 30]: 14.5 MFI | fluorescence intensity [20, 31]: 16.8 MFI | fluorescence intensity [20, 24]: 13.5 MFI | fluorescence intensity [20, 25]: 15 MFI | fluorescence intensity [20, 26]: 15.2 MFI | fluorescence intensity [20, 27]: 37 MFI | fluorescence intensity [20, 28]: 93 MFI | fluorescence intensity [20, 29]: 213 MFI | fluorescence intensity [21, 30]: 17 MFI | fluorescence intensity [21, 31]: 18 MFI | fluorescence intensity [21, 24]: 27 MFI | fluorescence intensity [21, 25]: 155 MFI | fluorescence intensity [21, 26]: 611 MFI | fluorescence intensity [21, 27]: 1800 MFI | fluorescence intensity [21, 28]: 2380 MFI | fluorescence intensity [21, 29]: 2480 MFI | fluorescence intensity [22, 30]: 18.2 MFI | fluorescence intensity [22, 31]: 18.8 MFI | fluorescence intensity [22, 24]: 19.5 MFI | fluorescence intensity [22, 25]: 23 MFI | fluorescence intensity [22, 26]: 44.2 MFI | fluorescence intensity [22, 27]: 130 MFI | fluorescence intensity [22, 28]: 262 MFI | fluorescence intensity [22, 29]: 406 MFI | fluorescence intensity [23, 30]: 19.5 MFI | fluorescence intensity [23, 31]: 20.5 MFI | fluorescence intensity [23, 24]: 21.2 MFI | fluorescence intensity [23, 25]: 28.8 MFI | fluorescence intensity [23, 26]: 48.2 MFI | fluorescence intensity [23, 27]: 134 MFI
